# Laboratory results as given in publication PMC7862700.
# Amino acid sequences for entries named in this document (tags omitted). A change or cut given only in a name is not applied to a line headed by its entry.
# UniProt Q01892: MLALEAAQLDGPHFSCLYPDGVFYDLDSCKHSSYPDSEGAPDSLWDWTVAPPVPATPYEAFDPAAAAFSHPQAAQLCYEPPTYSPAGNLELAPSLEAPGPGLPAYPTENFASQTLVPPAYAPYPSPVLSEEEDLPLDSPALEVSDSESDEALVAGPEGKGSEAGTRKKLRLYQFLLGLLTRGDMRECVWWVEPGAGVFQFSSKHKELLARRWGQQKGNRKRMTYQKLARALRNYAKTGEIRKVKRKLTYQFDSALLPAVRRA
# This is a selection; strong and weak results do not stand in their true shares. At the low end of the ranking, values are background and their order means little.
# Biological target: T1, EHF (UniProt Q9NZC4)
# T1 sequence: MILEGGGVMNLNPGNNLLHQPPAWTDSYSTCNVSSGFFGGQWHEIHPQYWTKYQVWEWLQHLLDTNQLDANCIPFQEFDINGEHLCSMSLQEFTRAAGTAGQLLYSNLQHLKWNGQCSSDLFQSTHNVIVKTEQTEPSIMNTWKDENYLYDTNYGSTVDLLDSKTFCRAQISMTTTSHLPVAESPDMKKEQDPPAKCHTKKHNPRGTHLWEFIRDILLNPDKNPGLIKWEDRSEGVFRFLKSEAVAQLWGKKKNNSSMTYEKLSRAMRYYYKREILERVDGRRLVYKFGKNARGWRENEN
# Experiment: DAPPL (digital affinity profiling via proximity ligation, sequencing)
# Conditions: 10 mM Tris-HCl pH 7.5, 50 mM NaCl, 1 mM DTT, 4% glycerol, room temperature, 30 min; GST-TFs on glutathione beads, 16-mer random dsDNA library, 0.1% …; high values mean tight binding; double strand, one strand shown; scale: fold enrichment (6-mer frequency, TF over GST control)
row,Sequence,binding signal
1,GATACT,1.21
2,CTGTTT,1.34
3,GATGAC,1.43
4,TTCACC,1.19
5,GGCCCC,0.933

# Biological target: SPIB (UniProt Q01892)
# Experiment: as above
# Conditions: 10 mM Tris-HCl pH 7.5, 50 mM NaCl, 1 mM DTT, 4% glycerol, room temperature, 30 min; GST-TFs on glutathione beads, 16-mer random dsDNA library, 0.1% …; high values mean tight binding; double strand, one strand shown; scale: fold enrichment (6-mer frequency, TF over GST control)
row,Sequence,binding signal
1,AATCCC,1.32
2,GATACT,1.16
3,AAGCGA,1
4,GGCCCC,0.999
5,CCATGC,0.987

# Biological target: T2, ETV2 (UniProt O00321)
# T2 sequence: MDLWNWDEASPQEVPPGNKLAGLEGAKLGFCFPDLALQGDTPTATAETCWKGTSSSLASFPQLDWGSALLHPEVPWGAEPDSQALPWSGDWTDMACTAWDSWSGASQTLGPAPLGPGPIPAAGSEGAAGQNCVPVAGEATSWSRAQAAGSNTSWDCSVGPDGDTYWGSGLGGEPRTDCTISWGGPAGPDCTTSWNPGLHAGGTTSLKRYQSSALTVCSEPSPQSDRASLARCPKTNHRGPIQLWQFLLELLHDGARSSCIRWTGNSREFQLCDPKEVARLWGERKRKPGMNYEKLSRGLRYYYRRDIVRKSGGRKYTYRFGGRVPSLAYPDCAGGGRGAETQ
# Experiment: as above
# Conditions: 10 mM Tris-HCl pH 7.5, 50 mM NaCl, 1 mM DTT, 4% glycerol, room temperature, 30 min; GST-TFs on glutathione beads, 16-mer random dsDNA library, 0.1% …; high values mean tight binding; double strand, one strand shown; scale: fold enrichment (6-mer frequency, TF over GST control)
row,Sequence,binding signal
1,TCTAGC,1.19
2,CAGAAT,1.13
3,AATCCC,1.37
4,CCTCCC,1.71
5,GTAACT,1.2
6,CTGCAA,1.07
7,CGAAGC,1.3
8,TATCGA,1.44
9,GATACT,1.02
10,AGCTTT,1.23
11,TCGATC,1.06
12,AAGCGA,0.936
13,CTTCTG,1.32
14,ACTAAG,0.983
15,CTGTTT,1.4
16,ATCAGC,0.882
17,GATGAC,1.35
18,GCGTTC,1.23
19,TTCACC,1.36

row,Sequence,binding signal
1,CGAAAG,1.13
2,TGAACT,1.2
3,CTGCAC,1.24
4,TTAAAA,1.25
5,TGGAAA,0.996
6,GGCCCC,1.13
7,TGTTCA,1.07
8,CCATGC,0.946
9,TCGTAC,1.22
10,ATTCGT,1.16
11,CGACGT,1.49
12,CTTGGG,1.15
13,TTGTGG,1.29
14,ATTTAC,1.16
15,ATGTGT,1.11
16,AAATTA,1.4
17,CTGCCC,1.38
18,CGATTA,1.13
19,CGACTT,1.72

# Biological target: T3, ETV3L (UniProt Q6ZN32)
# T3 sequence: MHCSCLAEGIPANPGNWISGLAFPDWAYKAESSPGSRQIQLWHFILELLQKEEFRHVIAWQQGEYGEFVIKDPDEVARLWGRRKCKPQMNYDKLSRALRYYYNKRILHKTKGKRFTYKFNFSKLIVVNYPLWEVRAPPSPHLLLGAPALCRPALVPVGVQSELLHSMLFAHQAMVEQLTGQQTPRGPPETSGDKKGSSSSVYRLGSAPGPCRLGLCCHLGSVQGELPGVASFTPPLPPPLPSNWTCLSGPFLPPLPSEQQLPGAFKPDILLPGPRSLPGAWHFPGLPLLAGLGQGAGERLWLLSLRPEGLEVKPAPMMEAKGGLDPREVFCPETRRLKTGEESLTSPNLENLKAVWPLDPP
# Experiment: as above
# Conditions: 10 mM Tris-HCl pH 7.5, 50 mM NaCl, 1 mM DTT, 4% glycerol, room temperature, 30 min; GST-TFs on glutathione beads, 16-mer random dsDNA library, 0.1% …; high values mean tight binding; double strand, one strand shown; scale: fold enrichment (6-mer frequency, TF over GST control)
row,Sequence,binding signal
1,TCTAGC,1.27
2,CAGAAT,0.984
3,AATCCC,1.29
4,CCTCCC,1.49
5,GTAACT,1.28
6,CTGCAA,1.35
7,CGAAGC,1.2
8,TATCGA,1.41
9,GATACT,1.22
10,AGCTTT,1.2
11,TCGATC,1.2
12,AAGCGA,1.02
13,CTTCTG,1.47
14,ACTAAG,1.12
15,CTGTTT,1.49
16,ATCAGC,0.963
17,GATGAC,1.53
18,GCGTTC,1.15
19,TTCACC,1.32

row,Sequence,binding signal
1,CGAAAG,1.05
2,TGAACT,1.23
3,CTGCAC,1.16
4,TTAAAA,1.27
5,TGGAAA,1.2
6,GGCCCC,0.993
7,TGTTCA,1.23
8,CCATGC,0.988
9,TCGTAC,0.993
10,ATTCGT,1.16
11,CGACGT,0.989
12,CTTGGG,1.26
13,TTGTGG,1.6
14,ATTTAC,1.18
15,ATGTGT,1.1
16,AAATTA,1.31
17,CTGCCC,1.22
18,CGATTA,1.23
19,CGACTT,1.62
